Assay results as given in article PMC3625562, “Rapid Screening of Drug-Protein Binding Using High-Performance Affinity Chromatography with Columns Containing Immobilized Human Serum Albumin” (Journal of Analytical Methods in Chemistry, 2013).
Structures can show the parent of a compound that is named as a salt.

The chains behind the UniProt entries cited, without tags or fusion partners. Residues count along the entry.
UniProt P02768, 25-609: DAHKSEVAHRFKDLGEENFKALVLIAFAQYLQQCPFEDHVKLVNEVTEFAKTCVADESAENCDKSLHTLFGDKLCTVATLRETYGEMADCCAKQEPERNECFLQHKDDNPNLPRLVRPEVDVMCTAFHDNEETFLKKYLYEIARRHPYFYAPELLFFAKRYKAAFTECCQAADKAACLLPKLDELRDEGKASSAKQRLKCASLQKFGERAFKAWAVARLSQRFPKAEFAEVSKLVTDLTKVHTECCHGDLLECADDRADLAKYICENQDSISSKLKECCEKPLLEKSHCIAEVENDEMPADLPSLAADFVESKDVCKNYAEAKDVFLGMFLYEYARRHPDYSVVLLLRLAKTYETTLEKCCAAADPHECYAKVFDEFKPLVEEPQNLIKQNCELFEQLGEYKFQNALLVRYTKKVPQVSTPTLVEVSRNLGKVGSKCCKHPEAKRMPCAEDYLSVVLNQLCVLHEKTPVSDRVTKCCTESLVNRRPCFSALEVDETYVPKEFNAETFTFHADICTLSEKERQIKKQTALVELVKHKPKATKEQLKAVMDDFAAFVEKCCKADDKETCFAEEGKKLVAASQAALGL

Biological target: immobilized human serum albumin (HSA) (Homo sapiens, UniProt P02768)
Experiment: Drug-protein binding screening by HPLC on immobilized HSA column (HSA-HPLC)
Conditions: reference compounds; Chiral-HSA 50 × 3 mm column, mobile phase 0.9% NaCl (pH 7.0), 0.5 mL/min, 100 µg/mL, 10 µL injected

Retention time [min] | Compound
6.23 | CN(C)CCOC(c1ccccc1)c1ccccc1 [Diphenhydramine hydrochloride]
3.68 | Cc1cc(NS(=O)(=O)c2ccc(N)cc2)no1 [Sulfamethoxazole]
